Measurements reported in article PMC9928118, “Funneling modulatory peptide design with generative models: Discovery and characterization of disruptors of calcineurin protein-protein interactions” (PLOS Computational Biology, 2023).
These are yes or no findings as the source states them, for the method shown.

Target: catalytic domain of Calcineurin (Cn A), residues 2-347 with Y341S, L343A, M347D (UniProt Q08209)
Experiment: fluorescence polarisation; competition: variable concentrations of non-labeled peptide added to 100 nM FITC-labeled PVIVIT peptide and 4 uM Cn A, 96-well plate, triplicate; fitted to a single site inhibition model; both purified

binding | Binder
no binding | TFWTNPQYRIKLEEAD (N-terminal acetylation, C-terminal amidation) [rbmCAPN11_3]
no binding | TTAMNPQFFVQIPRTA (N-terminal acetylation, C-terminal amidation) [CAPN11 peptide]
no binding | TFHTNPQYRIKLEEPD (N-terminal acetylation, C-terminal amidation) [rbmCAPN11_2]
